PubChem BioAssay AID686943 – Drosophila RNAi Screening Center, 2013

- Assay: 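Knockdowns that increase or decrease active ERK after insulin receptor stimulation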 (primary screen)
- System: Drosophila S2R+ haemocyte-like cells expressing YFP-tagged ERK (Rolled)
- Knock-down reagent: long dsRNA against Drosophila genes
- Challenge: insulin stimulation versus unstimulated cells; dose and duration not given
- Measurement: 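Antibody staining for doubly phosphorylated ERK divided by ERK-YFP signal, as plate z-scores, in insulin-treated and untreated cells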
- Direction: replicate 1, z-score of dpERK with insulin and replicate 2, z-score of dpERK with insulin: higher = more active ERK per ERK-YFP after insulin; replicate 1, z-score of dpERK under basal conditions: higher = more basal active ERK per ERK-YFP; replicate 1, z-score of ERK-YFP with insulin: higher = more YFP-tagged ERK signal
The deposit covers about 23,000 reagents; this is a random part of those that have a named target and a result. 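Extra replicates exist only for a retested subset of genes; insulin dose and duration not given; both raised and lowered dpERK matter.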 No sequences are given here. Not stated in the record: the amount of reagent, the time to read-out.

gene | amplicon | replicate 1, z-score of dpERK with insulin | replicate 2, z-score of dpERK with insulin | replicate 1, z-score of dpERK under basal conditions | replicate 1, z-score of ERK-YFP with insulin
Mgtor (Megator) | DRSC05958 | -0.34 | -0.28 | -1.51 | -0.21
Sodh1 (Sorbitol dehydrogenase 1) | DRSC12605 | 0.09 | 0.64 | -0.3 | 0.56
Phb2 (Prohibitin 2) | DRSC06512 | -3.65 | -1.42 | -2.06 | 2.18
Iswi (Imitation SWI) | DRSC07446 | -0.37 | -0.91 | -2.9 | -1.64
CG4956 | DRSC15683 | 0.25 | -0.15 | -0.41 | 0.1
TyrRS-m (Tyrosyl-tRNA synthetase, mitochondrial) | DRSC04286 | -0.37 | -0.03 | 0.85 | 0.21
Alp4 (Alkaline phosphatase 4) | DRSC14116 | 0.88 | -0.04 | 0.2 | 0.35
CG10962 | DRSC18421 | -0.26 | -1.04 | -0.31 | 0.46
srl (spargel) | DRSC12340 | 0.38 | -0.08 | -0.87 | -0.35
aop (anterior open) | DRSC00801 | -3.3 | -3.61 | -4.62 | -1.7
Samuel | DRSC02156 | -1.18 | -1.28 | -0.72 | -1.28
Samuel | DRSC02401 | -1.86 | -1.91 | -1.9 | -0.56
Samuel | DRSC02402 | 0.2 | 0.01 | 1.14 | 0.1
Samuel | DRSC21731 | -0.69 | -0.32 | 0.46 | -0.18
Jhe (Juvenile hormone esterase) | DRSC07174 | 0.37 | 0.08 | -0.35 | -0.1
O-fut2 (O-fucosyltransferase 2) | DRSC18608 | 0.5 | -0.13 | -0.29 | 0.14
CG31898 | DRSC01019 | 0.65 | 0.41 | -0.38 | 0.39
cnir (cornichon related) | DRSC00499 | 0.34 | -0.06 | -0.98 | -0.09
Cbl (Cbl proto-oncogene) | DRSC10764 | -0.18 | -0.02 | -0.85 | 0.1
Cbl (Cbl proto-oncogene) | DRSC11111 | -0.24 | 0.41 | -0.84 | 0.47
CG11722 | DRSC14358 | -0.33 | 0.06 | -0.65 | -0.8
yps (ypsilon schachtel) | DRSC11411 | 0.58 | -0.2 | 1.26 | 0.51
CG31636 | DRSC02276 | -0.67 | -0.03 | 0.29 | 0.33
CG6454 | DRSC16044 | 0.39 | -0.24 | -0.4 | -0.07
car (carnation) | DRSC20316 | 0.88 | 0.14 | -1.34 | 0.05
Liprin-beta | DRSC09795 | 0.17 | 0.93 | 0.42 | 0.87
bark (bark beetle) | DRSC00635 | 0.94 | 0.79 | 0.82 | 1.15
Chmp1 (Charged multivesicular body protein 1) | DRSC10401 | -0.26 | -1.08 | 1.18 | 0.21
Hexo1 (Hexosaminidase 1) | DRSC08663 | 0.47 | 0.12 | -0.17 | 0.25
udd (under-developed) | DRSC06720 | 0.41 | 0.6 | -1.02 | -0.54
Membrin | DRSC10448 | 0.24 | 0.11 | 4.78 | -0.34
Cmpk (Cytidine/uridine monophosphate kinase 1) | DRSC16643 | 0.4 | 0.59 | -0.17 | -0.36
CG9084 | DRSC07335 | -0.56 | -0.25 | 0.03 | -0.73
Rap1 (Rap1 GTPase) | DRSC08686 | -1.29 | -0.69 | -0.35 | 0.05
MAPk-Ak2 (MAP kinase activated protein-kinase-2) | DRSC18678 | -0.58 | 0.03 | -0.24 | 0.45
rngo (rings lost) | DRSC19903 | 0.45 | -0.28 | -1.02 | 0.8
Ndc1 (Nuclear division cycle 1) | DRSC15895 | 0.53 | -0.59 | 0.26 | -1.33
CG32523 | DRSC20510 | 0.42 | 0.11 | -0.36 | -0.53
CG14120 | DRSC10124 | 0.09 | -0.77 | 0.01 | 0.29
Osi3 (Osiris 3) | DRSC12175 | 0.77 | 0.47 | -0.67 | 0.06
Anp (Andropin) | DRSC14112 | 0.46 | -0.02 | 0.26 | 0.11
AlaRS-m (Alanyl-tRNA synthetase, mitochondrial) | DRSC09660 | 0.27 | -0.35 | 0.68 | -0.13
Smu1 (Smu1 spliceosomal factor) | DRSC15803 | -0.22 | 0.99 | 0.09 | -0.29
Jon74E (Jonah 74E) | DRSC10617 | -0.3 | -0.06 | 0.81 | -0.28
fusl (fuseless) | DRSC02351 | 0.31 | -0.61 | -0.18 | -0.07
Cwc25 | DRSC00545 | 1.16 | -0.13 | 0.57 | -0.28
CG34166 | DRSC02482 | 0.39 | 0.08 | 0.84 | 0.74
CG9886 | DRSC00732 | -0.23 | -0.44 | 0.15 | 0.02
CG42382 | DRSC07671 | 0.28 | 0.68 | 0.07 | 0.42
Alas (Aminolevulinate synthase) | DRSC04044 | -0.55 | 0.04 | -0.66 | 0.3
CG9068 | DRSC07329 | 0.34 | 0.03 | 0.06 | 0.14
side-VII (sidestep VII) | DRSC14578 | 0.35 | 0.58 | -0.52 | -1.65
Gasp | DRSC12349 | -0.72 | -1.19 | 2.1 | 0.06
obst-G (obstructor-G) | DRSC11103 | 0.19 | 0.34 | 0.7 | -0.53
CG14712 | DRSC14935 | 0.65 | 1.2 | 5.98 | -3.79
gsb-n (gooseberry-neuro) | DRSC04021 | 0.22 | 0.74 | -0.42 | -0.27
gsb-n (gooseberry-neuro) | DRSC04693 | 0.52 | 0.24 | 1.14 | -0.94

8 entries from above in another layout:
Sodh1 (Sorbitol dehydrogenase 1) [DRSC12605]: replicate 1, z-score of dpERK with insulin = 0.09; replicate 2, z-score of dpERK with insulin = 0.64; replicate 1, z-score of dpERK under basal conditions = -0.3; replicate 1, z-score of ERK-YFP with insulin = 0.56
Phb2 (Prohibitin 2) [DRSC06512]: replicate 1, z-score of dpERK with insulin = -3.65; replicate 2, z-score of dpERK with insulin = -1.42; replicate 1, z-score of dpERK under basal conditions = -2.06; replicate 1, z-score of ERK-YFP with insulin = 2.18
Iswi (Imitation SWI) [DRSC07446]: replicate 1, z-score of dpERK with insulin = -0.37; replicate 2, z-score of dpERK with insulin = -0.91; replicate 1, z-score of dpERK under basal conditions = -2.9; replicate 1, z-score of ERK-YFP with insulin = -1.64
CG4956 [DRSC15683]: replicate 1, z-score of dpERK with insulin = 0.25; replicate 2, z-score of dpERK with insulin = -0.15; replicate 1, z-score of dpERK under basal conditions = -0.41; replicate 1, z-score of ERK-YFP with insulin = 0.1
TyrRS-m (Tyrosyl-tRNA synthetase, mitochondrial) [DRSC04286]: replicate 1, z-score of dpERK with insulin = -0.37; replicate 2, z-score of dpERK with insulin = -0.03; replicate 1, z-score of dpERK under basal conditions = 0.85; replicate 1, z-score of ERK-YFP with insulin = 0.21
Alp4 (Alkaline phosphatase 4) [DRSC14116]: replicate 1, z-score of dpERK with insulin = 0.88; replicate 2, z-score of dpERK with insulin = -0.04; replicate 1, z-score of dpERK under basal conditions = 0.2; replicate 1, z-score of ERK-YFP with insulin = 0.35
CG10962 [DRSC18421]: replicate 1, z-score of dpERK with insulin = -0.26; replicate 2, z-score of dpERK with insulin = -1.04; replicate 1, z-score of dpERK under basal conditions = -0.31; replicate 1, z-score of ERK-YFP with insulin = 0.46
srl (spargel) [DRSC12340]: replicate 1, z-score of dpERK with insulin = 0.38; replicate 2, z-score of dpERK with insulin = -0.08; replicate 1, z-score of dpERK under basal conditions = -0.87; replicate 1, z-score of ERK-YFP with insulin = -0.35
